Data published in paper doi:10.1101/2020.12.28.423414.
These are yes or no findings as the source states them, for the method shown. In cells and extracts the contact can be indirect. These calls come from enrichment with a bait or labelling near it, and not all partners need be listed.

By UniProt entry, the sequences of proteins in these tests, tags left out.
UniProt Q9FIJ0: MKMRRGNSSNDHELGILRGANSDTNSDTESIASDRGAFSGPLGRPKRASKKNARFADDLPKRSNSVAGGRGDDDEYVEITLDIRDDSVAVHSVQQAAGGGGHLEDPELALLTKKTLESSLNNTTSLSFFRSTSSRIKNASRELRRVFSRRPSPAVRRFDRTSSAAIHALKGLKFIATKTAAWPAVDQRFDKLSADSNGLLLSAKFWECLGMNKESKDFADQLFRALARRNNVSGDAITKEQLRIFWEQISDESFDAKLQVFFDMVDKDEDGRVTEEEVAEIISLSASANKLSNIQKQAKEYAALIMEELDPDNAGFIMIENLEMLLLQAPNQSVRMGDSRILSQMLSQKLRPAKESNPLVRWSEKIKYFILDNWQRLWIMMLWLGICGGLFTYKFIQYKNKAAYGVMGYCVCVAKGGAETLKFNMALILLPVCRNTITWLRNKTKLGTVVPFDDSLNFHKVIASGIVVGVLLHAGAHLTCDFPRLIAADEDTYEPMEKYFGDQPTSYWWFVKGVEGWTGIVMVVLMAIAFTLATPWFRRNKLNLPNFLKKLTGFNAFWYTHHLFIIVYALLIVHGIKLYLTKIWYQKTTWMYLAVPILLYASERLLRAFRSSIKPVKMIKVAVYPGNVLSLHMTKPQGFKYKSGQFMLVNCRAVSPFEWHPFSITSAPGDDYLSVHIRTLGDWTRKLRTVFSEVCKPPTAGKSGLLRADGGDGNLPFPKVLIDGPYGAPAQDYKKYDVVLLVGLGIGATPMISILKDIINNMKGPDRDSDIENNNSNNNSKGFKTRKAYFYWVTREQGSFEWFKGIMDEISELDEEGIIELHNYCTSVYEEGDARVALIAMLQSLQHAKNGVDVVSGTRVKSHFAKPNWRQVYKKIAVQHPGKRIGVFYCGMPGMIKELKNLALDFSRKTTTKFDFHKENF

Target: 3×FLAG-tagged RBOHD (RESPIRATORY BURST OXIDASE HOMOLOG D) (Arabidopsis thaliana) (UniProt Q9FIJ0)
Assay: affinity purification with mass spectrometry

“2-oxoglutarate dehydrogenase E1 component (AT3G55410) (from UniProt F4IWV2) (enzyme)” was tested. Which binding did it give?
Its binding is “binds”.
